Assay results: PubChem BioAssay (EPA / NIEHS)
This list was built around the results that the source calls inconclusive (neither active nor inactive); the mix of calls is not that of the screen. For part of these data: A potency beside an inconclusive call is a rough fit, not a confirmed value. Calls of active or inactive are those of the source. Rule for the calls: active = hit-call score of the fitted dose curve at least 0.9, where 1 is the maximum; inconclusive = response in the unintended direction; inactive = score below 0.9.

Chains of the proteins cited; added tags and fusions are not shown. Lines headed by an entry give the natural chain unless they say otherwise; changes in a name come on top.
UniProt P31751: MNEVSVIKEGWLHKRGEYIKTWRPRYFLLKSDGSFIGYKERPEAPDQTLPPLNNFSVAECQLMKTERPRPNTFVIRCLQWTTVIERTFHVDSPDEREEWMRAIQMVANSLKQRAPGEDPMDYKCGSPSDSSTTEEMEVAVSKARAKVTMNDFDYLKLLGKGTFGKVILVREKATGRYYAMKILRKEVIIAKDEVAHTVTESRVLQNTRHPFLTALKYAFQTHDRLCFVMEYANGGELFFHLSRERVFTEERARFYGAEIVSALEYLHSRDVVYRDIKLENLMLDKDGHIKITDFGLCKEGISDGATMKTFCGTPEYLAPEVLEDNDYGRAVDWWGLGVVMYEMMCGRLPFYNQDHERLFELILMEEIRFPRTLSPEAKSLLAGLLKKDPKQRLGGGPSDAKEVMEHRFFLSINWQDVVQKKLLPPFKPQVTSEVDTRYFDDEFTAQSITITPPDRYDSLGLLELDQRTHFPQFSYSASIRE
UniProt P27361, whole entry, looked up: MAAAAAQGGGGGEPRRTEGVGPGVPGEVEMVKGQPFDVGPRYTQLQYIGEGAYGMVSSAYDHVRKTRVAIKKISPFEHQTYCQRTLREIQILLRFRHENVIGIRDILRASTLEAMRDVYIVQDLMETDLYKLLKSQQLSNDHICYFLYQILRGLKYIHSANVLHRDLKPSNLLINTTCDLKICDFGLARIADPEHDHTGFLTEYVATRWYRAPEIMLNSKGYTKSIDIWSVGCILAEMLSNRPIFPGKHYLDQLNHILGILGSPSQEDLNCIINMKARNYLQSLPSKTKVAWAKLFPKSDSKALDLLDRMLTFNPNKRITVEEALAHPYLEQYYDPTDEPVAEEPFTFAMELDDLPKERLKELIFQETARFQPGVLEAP
UniProt P28827, whole entry, looked up: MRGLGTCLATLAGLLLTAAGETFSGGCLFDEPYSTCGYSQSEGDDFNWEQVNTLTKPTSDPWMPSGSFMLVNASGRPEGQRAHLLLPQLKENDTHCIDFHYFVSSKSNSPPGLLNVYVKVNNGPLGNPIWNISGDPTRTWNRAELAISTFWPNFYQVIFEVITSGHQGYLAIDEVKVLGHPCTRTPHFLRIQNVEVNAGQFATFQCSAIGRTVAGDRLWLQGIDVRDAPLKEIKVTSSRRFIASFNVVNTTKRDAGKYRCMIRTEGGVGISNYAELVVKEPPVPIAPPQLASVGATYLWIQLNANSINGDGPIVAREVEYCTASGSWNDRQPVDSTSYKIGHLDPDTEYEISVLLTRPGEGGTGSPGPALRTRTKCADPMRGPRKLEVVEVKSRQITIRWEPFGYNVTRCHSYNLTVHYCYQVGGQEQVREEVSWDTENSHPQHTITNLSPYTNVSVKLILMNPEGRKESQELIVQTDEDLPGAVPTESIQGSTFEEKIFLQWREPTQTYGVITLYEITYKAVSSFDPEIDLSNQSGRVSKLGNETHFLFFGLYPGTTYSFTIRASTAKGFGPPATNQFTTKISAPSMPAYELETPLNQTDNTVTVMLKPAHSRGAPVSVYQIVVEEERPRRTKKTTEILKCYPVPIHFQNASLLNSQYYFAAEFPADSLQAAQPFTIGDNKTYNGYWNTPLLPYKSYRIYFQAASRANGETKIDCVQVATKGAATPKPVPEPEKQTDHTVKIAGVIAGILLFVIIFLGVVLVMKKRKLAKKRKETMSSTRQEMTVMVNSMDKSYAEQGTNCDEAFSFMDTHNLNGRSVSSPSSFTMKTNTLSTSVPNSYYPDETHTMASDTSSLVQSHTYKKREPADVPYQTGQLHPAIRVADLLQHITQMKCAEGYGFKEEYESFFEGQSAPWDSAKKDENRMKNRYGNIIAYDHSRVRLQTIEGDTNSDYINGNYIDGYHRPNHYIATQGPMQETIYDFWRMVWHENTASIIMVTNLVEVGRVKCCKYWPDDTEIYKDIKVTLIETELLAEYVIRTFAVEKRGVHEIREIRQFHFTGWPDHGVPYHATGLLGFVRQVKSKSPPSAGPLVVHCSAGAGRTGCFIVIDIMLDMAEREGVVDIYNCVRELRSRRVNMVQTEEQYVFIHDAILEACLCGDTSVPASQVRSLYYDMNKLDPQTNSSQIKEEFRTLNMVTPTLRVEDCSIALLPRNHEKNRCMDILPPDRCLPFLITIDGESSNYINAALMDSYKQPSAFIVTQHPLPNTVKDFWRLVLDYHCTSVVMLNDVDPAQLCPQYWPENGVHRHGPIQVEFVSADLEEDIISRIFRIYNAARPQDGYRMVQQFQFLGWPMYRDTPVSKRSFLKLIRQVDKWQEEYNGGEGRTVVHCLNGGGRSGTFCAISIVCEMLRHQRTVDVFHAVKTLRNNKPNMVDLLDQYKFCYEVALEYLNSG
UniProt Q8IXJ6: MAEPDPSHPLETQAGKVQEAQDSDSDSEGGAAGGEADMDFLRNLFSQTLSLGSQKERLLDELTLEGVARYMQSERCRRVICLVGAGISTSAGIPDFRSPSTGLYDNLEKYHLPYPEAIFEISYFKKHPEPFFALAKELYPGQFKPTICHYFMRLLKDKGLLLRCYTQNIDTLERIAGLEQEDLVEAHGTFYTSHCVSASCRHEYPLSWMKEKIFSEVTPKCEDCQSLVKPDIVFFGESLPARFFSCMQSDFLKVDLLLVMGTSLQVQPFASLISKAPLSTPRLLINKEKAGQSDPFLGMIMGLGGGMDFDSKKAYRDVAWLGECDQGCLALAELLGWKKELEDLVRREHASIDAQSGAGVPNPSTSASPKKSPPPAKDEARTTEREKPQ
UniProt Q05209: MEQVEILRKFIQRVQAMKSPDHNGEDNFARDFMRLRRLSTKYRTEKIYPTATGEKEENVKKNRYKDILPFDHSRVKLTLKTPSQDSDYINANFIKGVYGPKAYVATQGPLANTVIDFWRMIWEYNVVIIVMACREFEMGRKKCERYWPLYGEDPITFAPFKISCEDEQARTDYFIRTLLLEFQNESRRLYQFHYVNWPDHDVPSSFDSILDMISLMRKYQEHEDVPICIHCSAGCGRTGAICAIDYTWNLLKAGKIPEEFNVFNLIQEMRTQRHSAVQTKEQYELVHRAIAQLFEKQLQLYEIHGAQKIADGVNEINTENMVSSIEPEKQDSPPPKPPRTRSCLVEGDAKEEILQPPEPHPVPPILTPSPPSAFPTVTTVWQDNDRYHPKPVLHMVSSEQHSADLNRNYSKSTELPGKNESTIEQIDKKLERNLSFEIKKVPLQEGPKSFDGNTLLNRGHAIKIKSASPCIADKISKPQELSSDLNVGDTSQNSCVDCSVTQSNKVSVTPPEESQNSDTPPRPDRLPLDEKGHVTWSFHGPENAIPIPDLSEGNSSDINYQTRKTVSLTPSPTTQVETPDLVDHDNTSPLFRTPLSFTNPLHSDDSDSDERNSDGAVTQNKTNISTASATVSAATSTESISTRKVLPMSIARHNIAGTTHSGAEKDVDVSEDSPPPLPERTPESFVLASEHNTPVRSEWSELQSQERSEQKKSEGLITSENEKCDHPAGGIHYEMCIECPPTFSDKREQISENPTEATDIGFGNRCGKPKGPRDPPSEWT
UniProt P33261, whole entry, looked up: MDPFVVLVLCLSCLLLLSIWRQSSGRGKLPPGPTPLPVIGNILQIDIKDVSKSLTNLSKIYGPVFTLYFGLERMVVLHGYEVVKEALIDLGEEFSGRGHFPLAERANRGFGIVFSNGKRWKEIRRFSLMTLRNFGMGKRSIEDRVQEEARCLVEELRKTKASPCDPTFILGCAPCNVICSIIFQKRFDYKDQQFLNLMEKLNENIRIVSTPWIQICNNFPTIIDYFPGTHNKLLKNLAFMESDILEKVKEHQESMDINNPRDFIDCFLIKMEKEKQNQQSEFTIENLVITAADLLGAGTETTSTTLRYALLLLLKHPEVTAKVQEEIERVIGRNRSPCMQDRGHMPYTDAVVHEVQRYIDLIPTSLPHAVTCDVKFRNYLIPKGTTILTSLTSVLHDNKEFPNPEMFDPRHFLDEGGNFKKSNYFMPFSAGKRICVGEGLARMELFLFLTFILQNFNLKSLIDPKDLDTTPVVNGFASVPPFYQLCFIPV
UniProt Q9UNQ0: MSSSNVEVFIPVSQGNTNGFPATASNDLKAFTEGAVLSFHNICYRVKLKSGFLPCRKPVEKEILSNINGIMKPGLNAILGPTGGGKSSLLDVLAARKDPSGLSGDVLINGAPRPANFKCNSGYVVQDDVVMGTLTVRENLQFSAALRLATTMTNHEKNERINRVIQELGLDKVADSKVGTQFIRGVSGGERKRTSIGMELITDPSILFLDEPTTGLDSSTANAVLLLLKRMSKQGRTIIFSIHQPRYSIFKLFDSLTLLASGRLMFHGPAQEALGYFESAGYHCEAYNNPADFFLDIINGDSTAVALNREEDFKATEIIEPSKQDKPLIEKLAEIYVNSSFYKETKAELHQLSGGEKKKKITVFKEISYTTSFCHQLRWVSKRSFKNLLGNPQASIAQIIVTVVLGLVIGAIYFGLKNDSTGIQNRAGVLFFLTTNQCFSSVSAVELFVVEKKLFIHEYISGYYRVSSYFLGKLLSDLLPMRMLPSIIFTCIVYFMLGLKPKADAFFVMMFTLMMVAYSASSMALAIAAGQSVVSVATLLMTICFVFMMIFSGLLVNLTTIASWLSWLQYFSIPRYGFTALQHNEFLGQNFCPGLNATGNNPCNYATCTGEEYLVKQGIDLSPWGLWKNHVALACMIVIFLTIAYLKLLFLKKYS
UniProt P04406: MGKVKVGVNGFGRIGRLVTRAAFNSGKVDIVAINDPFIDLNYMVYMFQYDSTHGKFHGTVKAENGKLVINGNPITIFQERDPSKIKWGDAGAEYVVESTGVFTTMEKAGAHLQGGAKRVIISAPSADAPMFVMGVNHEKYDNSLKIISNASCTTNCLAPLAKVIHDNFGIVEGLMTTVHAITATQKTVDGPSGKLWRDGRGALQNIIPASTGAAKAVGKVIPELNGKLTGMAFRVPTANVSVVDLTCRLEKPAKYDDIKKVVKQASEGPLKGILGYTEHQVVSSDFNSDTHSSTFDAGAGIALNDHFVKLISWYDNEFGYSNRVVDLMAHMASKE
UniProt P04799: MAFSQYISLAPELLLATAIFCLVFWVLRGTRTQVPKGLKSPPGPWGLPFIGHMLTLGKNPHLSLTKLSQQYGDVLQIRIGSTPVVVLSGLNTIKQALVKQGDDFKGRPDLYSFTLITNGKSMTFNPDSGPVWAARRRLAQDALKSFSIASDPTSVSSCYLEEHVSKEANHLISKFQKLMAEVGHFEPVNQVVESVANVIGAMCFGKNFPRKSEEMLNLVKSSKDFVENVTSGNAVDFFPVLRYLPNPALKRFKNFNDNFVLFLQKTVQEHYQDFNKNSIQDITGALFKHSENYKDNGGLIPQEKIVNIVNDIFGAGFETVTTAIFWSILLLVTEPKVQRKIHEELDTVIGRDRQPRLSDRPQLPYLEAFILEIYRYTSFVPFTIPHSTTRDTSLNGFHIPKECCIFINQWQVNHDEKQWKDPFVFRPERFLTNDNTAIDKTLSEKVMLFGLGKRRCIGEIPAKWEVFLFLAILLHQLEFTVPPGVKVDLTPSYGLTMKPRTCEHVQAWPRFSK

Tests used:
[1] = biological target: Voltage-dependent N-type calcium channel subunit alpha-1B (Rattus norvegicus) (UniProt Q02294); assay: NVS_IC_rCaChN: NovaScreen (NVS) Ion Channel Assay for rat Calcium Channel, Type N (CaChN) (AID 2283317)
[2] = Tanguay_ZF_120hpf_SOMI_legacy: (Legacy) Oregon State University Tanguay Lab 120 Hour Post-fertilization zebrafish Assay for Somite Malformation (AID 2283647)
Outline: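 Dechorionated Tropical 5D wild-type zebrafish embryos, one per well from 6 hpf, statically exposed at 28C to 120 hpf in 0.64% DMSO; somite malformation scored present/absent by brightfield; trimethyltin 5 uM positive control; dead embryos not scored.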

[3] = CCTE_Mundy_HCI_hNP1_Pro_ResponderAvgInten: CCTE's Proliferation Assay in human neuroprogenitor cells, Mundy Lab (AID 2284224);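 note: human neural progenitor cells hNP1 derived from WA09 embryonic stem cells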
Outline: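 Proliferation was scored as BrdU labelling intensity in human neural progenitors derived from WA09 embryonic cells, measured 26.25 hours after chemical dosing. Activity was fitted relative to DMSO.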

[4] = biological target: human AKT serine/threonine Kinase 2 (AKT2), AKT2 (gene 208) (UniProt P31751); assay: NVS_ENZ_hAKT2: NovaScreen (NVS) Enzymatic Assay for human AKT serine/threonine Kinase 2 (AKT2) (AID 2283141)
Outline: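 Cell-free fluorescence/electrophoretic mobility shift readout of recombinant human AKT2 activity, 1 h after chemical dosing. Duplicate primary screen at 25 uM, then singleton concentration-response up to 50 uM; loss of signal versus DMSO baseline.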

CDK2 (gene 1017) = CDK2 (gene 1017) (UniProt P24941); assay: NVS_ENZ_hCDK2: NovaScreen (NVS) Enzymatic Assay for human Cyclin-Cependent Kinase 2 (CDK2) (AID 2283144)
Outline: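 Cell-free recombinant human CDK2 with fluorescent substrate, product separated by electrophoretic mobility shift; 1 hr read. Primary screen at 25 uM in duplicate, actives retested in concentration-response up to 50 uM; loss of signal versus DMSO.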

[5] = biological target: Mitogen-activated protein kinase 3 (Homo sapiens) (UniProt P27361); assay: NVS_ENZ_hMAPK3: NovaScreen (NVS) Enzymatic Assay for human Mitogen-Activated Protein Kinase 3 (MAPK 3) (AID 2283177)
Outline: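 Cell-free enzymatic assay with recombinant protein and specific substrate; fluorescence and electrophoretic mobility shift read-out 1 h after dosing. Primary screen duplicate at 25 uM; actives then run in concentration-response up to 50 uM, loss of signal versus DMSO.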

[6] = biological target: Tyrosine-protein phosphatase non-receptor type 13 (Homo sapiens) (UniProt Q12923); assay: NVS_ENZ_hPTPN13: NovaScreen (NVS) Enzymatic Assay for human Protein Tyrosine Phosphatase Non-receptor Type 13 (PTPN13) (AID 2283205)
Outline: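 Cell-free assay of recombinant human PTPN13 with a fluorescent substrate, product separated by electrophoretic mobility shift and read 0.5 h after dosing. Primary screen at 25 uM in duplicate, then concentration-response up to 50 uM. Loss of signal fitted against DMSO.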

[7] = biological target: human Protein Tyrosine Phosphatase Receptor Type M (PTPRM), PTPRM (gene 5797) (UniProt P28827); assay: NVS_ENZ_hPTPRM: NovaScreen (NVS) Enzymatic Assay for human Protein Tyrosine Phosphatase Receptor Type M (PTPRM) (AID 2283215)
Outline: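 Cell-free recombinant PTPRM with fluorogenic substrate; product separated from substrate by electrophoretic mobility shift and read by fluorescence, 1.33 h after dosing. Primary screen single concentration (25 uM) in duplicate; actives retested in concentration series; loss of signal versus DMSO.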

[8] = biological target: human Sirtuin 2 (SIRT2), SIRT2 (gene 22933) (UniProt Q8IXJ6); assay: NVS_ENZ_hSIRT2: NovaScreen (NVS) Enzymatic Assay for human Sirtuin 2 (SIRT2) (AID 2283217)
Outline: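 Cell-free recombinant human SIRT2, fluorescent substrate with product separated by electrophoretic mobility shift, 1 hr. Screened in duplicate at 25 uM; hits rerun singly in concentration-response up to 50 uM, relative to DMSO.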

[9] = biological target: Tyrosine-protein phosphatase non-receptor type 12 (Homo sapiens) (UniProt Q05209); assay: NVS_ENZ_hPTPN12: NovaScreen (NVS) Enzymatic Assay for human Protein Tyrosine Phosphatase Non-receptor Type 12 (PTPN12) (AID 2283204)
Outline: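 Single-concentration duplicates (25 uM) preceded singleton concentration-response up to 50 uM for chemicals passing threshold. Cell-free recombinant PTPN12 activity was read 1.33 h after dosing via fluorescence after mobility-shift separation; loss of signal versus DMSO.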

[10] = Tanguay_ZF_120hpf_NC_legacy: (Legacy) Oregon State University Tanguay Lab 120 Hour Post-fertilization zebrafish Assay for Notochord and Tail Malformation (AID 2283656)
Outline: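 Dechorionated 5D zebrafish, 1/well from 6 hpf; static exposure to 120 hpf, 28C, sealed, dark; final DMSO 0.64% v/v. NC scored binary (present/absent); dead embryos not scored. Fit vs DMSO baseline, gain direction.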

[11] = STM_H9_NormalizedViability: Cytotoxicity Assessment at 120 hours in the Stemina devTOX quickPredict H9 human embryonic stem cell (hESC)-based Assay (AID 2283784)
Outline: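 Chemicals are tested blinded on H9 human embryonic stem cells in the pluripotent state, with medium exchanged daily. After background correction, fluorescence from CellTiter-Fluor is scaled against 0.1% DMSO wells, and decreases are scored.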

[12] = read-out: ABC Transporter (ABCB11), ABCB11 (gene 8647); assay: CLD_ABCB11_48hr: CellzDirect (CLD) Gene Expression Assay for ABC Transporter (ABCB11) at 48 hours (AID 2283697)
Outline: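 Primary human hepatocytes from two donor preparations dosed daily for two days at multiple concentrations; 0.2% DMSO vehicle. ABCB11 mRNA at 48 h by quantitative nuclease protection assay, chemiluminescence; fitted for induction versus DMSO.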

[13] = read-out: Cytochrome P450 2C19 (Homo sapiens) (UniProt P33261); assay: CLD_CYP2C19_48hr: CellzDirect (CLD) Gene Expression Assay for xenobiotic metabolism (CYP2C19) at 48 hours (AID 2283700);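 note: fitted upward so actives raise CYP2C19 mRNA above the 0.2% DMSO vehicle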
Outline: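 Primary human hepatocytes (two donor preparations) dosed daily for two days, harvested at 48 h; CYP2C19 mRNA induction measured by qNPA chemiluminescence. Gain-of-signal fitted relative to 0.2% DMSO vehicle as baseline.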

[14] = read-out: Broad substrate specificity ATP-binding cassette transporter ABCG2 (Homo sapiens) (UniProt Q9UNQ0); assay: CLD_ABCG2_48hr: CellzDirect (CLD) Gene Expression Assay for ABC Transporter (ABCG2) at 48 hours (AID 2283704);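 note: potency for induction of ABCG2 mRNA above the DMSO baseline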
Outline: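 Primary human hepatocytes from two donors, dosed daily for 2 days, 0.2% DMSO vehicle, several concentrations. ABCG2 mRNA at 48 h by qNPA chemiluminescence, gain fitted versus DMSO; cytotoxicity flagged by morphology.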

[15] = read-out: Glyceraldehyde-3-phosphate dehydrogenase (Homo sapiens) (UniProt P04406); assay: CLD_GAPDH_48hr: CellzDirect (CLD) Gene Expression Assay for Baseline Control (Glyceraldehyde 3-phosphate dehydrogenase) at 48 hours (AID 2283706);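 note: active means higher GAPDH mRNA than DMSO vehicle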
Outline: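 Primary human hepatocytes dosed daily for two days with fresh chemical at multiple concentrations, 0.2% DMSO vehicle; GAPDH mRNA measured at 48 h by quantitative nuclease protection assay with chemiluminescence, fitted upward relative to DMSO as background control.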

[16] = read-out: organic anion transporter (SLCO1B1), SLCO1B1 (gene 10599); assay: CLD_SLCO1B1_48hr: CellzDirect (CLD) Gene Expression Assay for organic anion transporter (SLCO1B1) at 48 hours (AID 2283707)
Outline: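 Primary human hepatocytes from two donor preparations dosed daily for two days with multiple concentrations, 0.2% DMSO vehicle. SLCO1B1 mRNA at 48 h by quantitative nuclease protection assay, chemiluminescence; gain-of-signal fitted versus DMSO.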

[17] = read-out: HMG-CoA synthase (HMGCS2), HMGCS2 (gene 3158); assay: CLD_HMGCS2_48hr: CellzDirect (CLD) Gene Expression Assay for HMG-CoA synthase (HMGCS2) at 48 hours (AID 2283711)
Outline: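 Primary human hepatocytes from two donors dosed daily for two days, 0.2% DMSO vehicle. HMGCS2 mRNA measured 48 h after dosing by quantitative nuclease protection assay with chemiluminescent read-out; induction fitted relative to DMSO, cytotoxicity flagged by microscopy.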

[18] = biological target: rat CYP1A2, Cyp1a2 (gene 24297) (UniProt P04799); assay: NVS_ADME_rCYP1A2: NovaScreen (NVS) CYP450-related Enzyme Activity (ADME) Assay for rat CYP1A2 (AID 2283115)
Outline: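 Cell-free recombinant rat enzyme with fluorogenic substrate, read by fluorescence intensity 1 hour after dosing. Loss of signal versus acetonitrile negative control; primary screen at 10 uM in duplicate, actives followed in concentration series.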

[19] = CCTE_Shafer_MEA_acute_AB: CCTE's Alamar Blue Assay for Cytotoxicity in the Neural Acute Assay, Shafer Lab (AID 2284069);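 note: active compounds lower the viability signal compared with DMSO wells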
Outline: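 Cytotoxicity endpoint for acute MEA exposures of primary rat cortical neurons on day 13 or 15. Resazurin reduction is read fluorescently at 544/590 nm, with DMSO as the negative-control baseline.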

With COc1cc2c(c(OC)c1OC)-c1ccc(OC)c(=O)cc1[C@@H](NC(C)=O)CC2 the AC50 [1] was inconclusive: 25 µM, the AC50 [2] was active: 25.5 µM and the AC50 [3] was inconclusive: 0.00605 µM.

With NCCO the AC50 [4] was inconclusive: 25 µM, the AC50 (CDK2 (gene 1017)) was inconclusive: 25 µM and the AC50 [5] was inconclusive: 7.66 µM. For the same compound, the AC50 [6] was inconclusive: 0.101 µM, the AC50 [7] was inconclusive: 0.305 µM and the AC50 [8] was inconclusive: 25 µM.

For CN1C(=O)N(c2ccccc2Br)Cc2cnc(Nc3ccc4c(c3)OCC(CO)O4)nc21 (configuration not stated), the AC50 (CDK2 (gene 1017)) was active: 11.7 µM, the AC50 [9] was inconclusive: 0.174 µM and the AC50 [10] was inconclusive: 28 µM.

In the case of COC(=O)C=Cc1ccccc1, the AC50 [11] is reported as inconclusive: 9.92 µM.

For CCCCNS(=O)(=O)c1ccccc1, the AC50 [3] was inconclusive: 10 µM.

For COC(=O)c1cccc(C)c1S(=O)(=O)NC(=O)Nc1nc(OCC(F)(F)F)nc(N(C)C)n1, the AC50 [12] was inconclusive: 38.4 µM, the outcome [13] was “inactive” and the AC50 [14] was inconclusive: 5.19 µM. The outcome [15] was “inactive”, the outcome [16] was “inactive” and the outcome [17] was “inactive”.

For CCCCCCCC=O, the AC50 [1] was inconclusive: 25 µM.

With O=C1OC2(c3ccc(O)cc3Oc3cc(O)ccc32)c2ccccc21 the AC50 [18] was inconclusive: 5 µM.

For CC[C@H](C)C(=O)O[C@H]1C[C@H](O)C=C2C=C[C@H](C)[C@H](CC[C@@H](O)C[C@@H](O)CC(=O)O)[C@H]21, the AC50 [7] was inconclusive: 25 µM, the outcome [10] was “inactive” and the outcome [19] was “inactive”.

In the case of CC1(C)C(=O)N(Cl)C(=O)N1Cl, the AC50 [2] is reported as inconclusive: 43.7 µM.

With OCCNCCO the AC50 [11] was inconclusive: 9.92 µM.
